Key:
human OCT3 = biological target: T1, human OCT3 (Homo sapiens, UniProt O75751); test: Uptake inhibition assay, OCT3; assay type: cell-based; settings: HEK293 cells expressing human OCT3, 0.05 µM [3H]MPP+
T1 construct: expressed in transfected cells
T1 sequence (O75751 1-556): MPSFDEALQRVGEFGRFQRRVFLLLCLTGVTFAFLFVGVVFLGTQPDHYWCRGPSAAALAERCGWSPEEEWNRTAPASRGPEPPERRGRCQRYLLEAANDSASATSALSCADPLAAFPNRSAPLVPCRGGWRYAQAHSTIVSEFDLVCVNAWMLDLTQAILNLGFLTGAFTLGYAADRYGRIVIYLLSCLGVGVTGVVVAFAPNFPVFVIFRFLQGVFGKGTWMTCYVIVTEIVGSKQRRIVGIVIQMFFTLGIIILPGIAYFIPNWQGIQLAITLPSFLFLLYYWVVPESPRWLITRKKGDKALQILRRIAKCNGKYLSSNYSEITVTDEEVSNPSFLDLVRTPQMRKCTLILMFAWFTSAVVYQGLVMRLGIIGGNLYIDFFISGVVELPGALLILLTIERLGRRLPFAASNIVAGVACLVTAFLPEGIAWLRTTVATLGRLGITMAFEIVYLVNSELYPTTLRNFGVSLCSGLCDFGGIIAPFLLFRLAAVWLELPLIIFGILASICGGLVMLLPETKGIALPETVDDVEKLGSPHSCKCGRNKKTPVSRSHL
Experimental: Human embryonic kidney (HEK293) cells stably expressing the human isoform (h) of the transporters were grown at 37 °C in a humidified atmosphere of 5% CO2, described in detail in [Mayer et al. (2018)]. Cells were cultured in Dulbecco’s modified Eagle’s medium (DMEM) supplemented with 10% fetal bovine serum and 250 μg/mL geneticin to maintain selection pressure.
HEK293 cells heterologously expressing the respective transporters were seeded onto poly-D-lysine (PDL)-coated 96-well plates at a density of ∼36,000 cells per well, 1 day before experiments. For the experiment, medium was replaced with 200 µL Krebs HEPES buffer (KHB; 120 mM NaCl, 3 mM KCl, 2 mM CaCl2·2H2O, 2 mM MgCl2·6H2O, 20 mM D-glucose, pH 7.3). Test compounds were dissolved in Milli-Q water or dimethyl sulfoxide (DMSO) at 10–100 mM stock concentrations. Cells were preincubated for 5 min with the compound of interest (diluted in KHB to the indicated concentrations). […] Radioactive uptake was quantified by liquid scintillation counting using a Wallac 1450 MicroBeta TriLux counter (PerkinElmer; GMI, Ramsey, MN, United States). […]
FIGURE 3 Inhibition of substrate uptake by local anesthetics at OCT1–3. […] Uptake is expressed as a percentage of control (uptake in the absence of test compound). […]

human OCT2 = biological target: T2, human OCT2 (Homo sapiens, UniProt O15244); test: cell-based
T2 sequence (O15244 1-555): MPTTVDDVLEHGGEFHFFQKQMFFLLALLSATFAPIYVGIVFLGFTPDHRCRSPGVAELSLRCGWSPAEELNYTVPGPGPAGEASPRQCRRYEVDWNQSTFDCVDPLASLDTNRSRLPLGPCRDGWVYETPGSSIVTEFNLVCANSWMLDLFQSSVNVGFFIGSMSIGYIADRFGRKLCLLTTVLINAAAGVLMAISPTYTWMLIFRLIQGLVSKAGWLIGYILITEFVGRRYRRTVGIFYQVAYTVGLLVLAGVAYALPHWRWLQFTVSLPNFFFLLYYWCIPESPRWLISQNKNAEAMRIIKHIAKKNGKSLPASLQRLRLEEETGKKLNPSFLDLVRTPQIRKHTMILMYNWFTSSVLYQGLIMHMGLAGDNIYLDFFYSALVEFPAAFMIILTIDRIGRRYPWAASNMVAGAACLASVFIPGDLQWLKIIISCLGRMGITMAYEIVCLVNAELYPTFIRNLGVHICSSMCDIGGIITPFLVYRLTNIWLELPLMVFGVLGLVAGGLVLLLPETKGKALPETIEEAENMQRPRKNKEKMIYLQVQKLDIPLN
Experimental: (§1) Cells were cultured in Dulbecco’s modified Eagle’s medium (DMEM) supplemented with 10% fetal bovine serum and 250 μg/mL geneticin to maintain selection pressure.
(§2) HEK293 cells heterologously expressing the respective transporters were seeded onto poly-D-lysine (PDL)-coated 96-well plates at a density of ∼36,000 cells per well, 1 day before experiments. For the experiment, medium was replaced with 200 µL Krebs HEPES buffer (KHB; 120 mM NaCl, 3 mM KCl, 2 mM CaCl2·2H2O, 2 mM MgCl2·6H2O, 20 mM D-glucose, pH 7.3). Test compounds were dissolved in Milli-Q water or dimethyl sulfoxide (DMSO) at 10–100 mM stock concentrations. Cells were preincubated for 5 min with the compound of interest (diluted in KHB to the indicated concentrations). The preincubation solution was then replaced with 50 µL/well of diluted compound together with tritiated substrate (DAT, OCT1, OCT2, OCT3: 0.05 μM [^3H]MPP^+; NET: 0.02 μM [^3H]MPP^+; SERT: 0.1 μM [^3H]5-HT) for 1 min (SERT) or 3 min (DAT, NET, OCT1– OCT3). After the incubation, uptake was terminated by rapidly washing cell with 200 μL KHB, followed by addition of 200 μL Ultima Gold™ XR scintillation cocktail (PerkinElmer, MA, United States) to each well. […]
(§3) Uptake is expressed as a percentage of control (uptake in the absence of test compound). […]

human OCT1 = biological target: T3, human OCT1 (Homo sapiens, UniProt O15245); test: cell-based
T3 sequence (O15245 1-554): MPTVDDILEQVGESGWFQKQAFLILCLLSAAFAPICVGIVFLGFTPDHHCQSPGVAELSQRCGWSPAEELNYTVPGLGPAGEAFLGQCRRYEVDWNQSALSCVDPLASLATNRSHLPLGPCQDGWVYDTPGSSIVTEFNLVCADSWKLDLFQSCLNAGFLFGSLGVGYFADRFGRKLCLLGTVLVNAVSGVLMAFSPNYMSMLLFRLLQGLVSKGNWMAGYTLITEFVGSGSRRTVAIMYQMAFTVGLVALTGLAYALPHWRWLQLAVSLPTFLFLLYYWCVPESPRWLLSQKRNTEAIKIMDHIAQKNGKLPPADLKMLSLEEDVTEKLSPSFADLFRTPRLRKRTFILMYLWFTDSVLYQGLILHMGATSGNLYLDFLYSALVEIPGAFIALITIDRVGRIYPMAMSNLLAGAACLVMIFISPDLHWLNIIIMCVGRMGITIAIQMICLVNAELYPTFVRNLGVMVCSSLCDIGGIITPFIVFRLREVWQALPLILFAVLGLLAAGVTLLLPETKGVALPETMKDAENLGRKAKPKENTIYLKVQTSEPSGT
Experimental: as §1, §2, §3

In the case of `CCN(CC)CC(=O)Nc1c(C)cccc1C` [lidocaine], the “Inhibition of OCT3-mediated transport (in words)” value (human OCT3) is reported as “none of the compounds—cocaine, procaine, or lidocaine—substantially inhibited OCT3-mediated transport except at near-millimolar concentrations”, the IC50 (human OCT2) is reported as 23 to 90 µM and the IC50 (human OCT1) is reported as 79 to 252 µM.

Source: article PMC12672436 (Frontiers in Pharmacology, 2025)
